Laboratory results taken from PubChem BioAssay AID2685 (National Center for Advancing Translational Sciences (NCATS), 2010).
Some of the results follow. Further columns of the screen follow, without active or inactive calls. Compounds called inactive in the main read-out are mostly missing here. The note in brackets gives the kind of curve behind each potency; many fits are weak.

Assay: qHTS Assay for Lipid Storage Modulators in Drosophila S3 Cells;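 as to cell number change: cells counted by Cell Tracker Red CMTPX staining in the red channel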
Details: BODIPY lipid droplet fluorescence, 18-24 h; for cell number change: measured here: cell count max response, cells fed with added oleic acid
Method in brief: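 Drosophila S3 cells loaded with oleic acid (400 uM, as added) and compounds at several concentrations; lipid droplets imaged by 488-nm laser-scanning cytometry, 500–530 nm intensity and object ratio to cell channel. Percent activity normalized to 20 uM Triacsin C.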

[1] = measured here: lipid fluorescence (Fed channel) AC50, cells fed with added oleic acid
[2] = measured here: cell number channel AC50, cells fed with added oleic acid

Structure (SMILES) | cell number change | AC50 [1] | AC50 [2]
CCOc1cccc(C(=O)NCc2ccccc2)c1 | -13.7% | 16.4 µM [falling, single point] | –
COc1ccc(-n2nnc3c(SC(C(C)=O)C(=O)N(C)C)ncnc32)cc1 (configuration not stated) | 15% | 29.1 µM [rising, single point] | –
O=C1NC2(CCCCC2)C(=O)N1c1ccc(Cl)cc1 | -14.6% | – | –
Cc1cccc(-c2cc3nc(C)cc(NCCCn4ccnc4)n3n2)c1 | 30.9% | 18.4 µM [rising, single point] | –
COC(=O)c1cn(C(=O)c2cccc(Br)c2)c2ccccc12 | 28.5% | 10.3 µM [rising, partial curve] | –
COc1ccc(C2C3=C(CC(C)(C)CC3=O)Oc3ncn(CCCn4ccnc4)c(=N)c32)cc1 (configuration not stated) | 1.87% | 0.651 µM [rising, full curve] | –
COc1ccc(-c2c(C)oc3ccc(C)cc23)cc1 | 11.6% | – | –
CC1C(=NO)C(C)C(c2ccccc2)NC1c1ccccc1 (configuration not stated) | – | 3.66 µM [falling, partial curve] | –
Cc1cc(C(=O)NCCN2CCCCC2C)n(-c2ccccc2)n1 (configuration not stated) | -37.9% | 25.9 µM [falling, partial curve, poor fit] | 16.4 µM [falling, partial curve, poor fit]
Cc1ccc(CC(=O)N2CCN(c3ccccn3)CC2)cc1 | 0.196% | 18.4 µM [rising, single point] | –
COc1ccc(S(=O)(=O)Nc2cc3c(C(C)=O)c(C)oc3c3ccccc23)cc1 | – | 0.58 µM [rising, partial curve, poor fit] | –
O=C(NCCCNC(=O)c1ccccc1F)c1ccco1 | -3.75% | – | –
COc1ccc(-c2nnc3n2N=C(c2ccccc2)CS3)cc1OC | 18.2% | 1.16 µM [rising, partial curve] | –
COCCN(C(=O)COC(=O)c1cccnc1SC)c1c(N)n(Cc2ccccc2)c(=O)[nH]c1=O | – | 14.6 µM [falling, single point] | –
CC(C)=CCc1c(O)c(CC=C(C)C)c2occ(-c3ccc(O)cc3)c(=O)c2c1O | -73.3% | 23.1 µM [falling, partial curve] | 23.1 µM [falling, partial curve]
O=C(Cc1ccc(Br)cc1)NCc1ccccc1 | -12.3% | 29.1 µM [falling, single point] | –
CC(C)N(CC#CCC(O)(c1ccccc1)c1ccccc1)C(C)C | -9.5% | 0.461 µM [falling, full curve, poor fit] | –
O=S(=O)(c1cccnc1)N1CCn2cccc2C1c1ccccc1F (configuration not stated) | – | 0.184 µM [rising, full curve] | –
Cc1cccc(CN2CCN(C(=O)CCl)CC2)c1 | -14.9% | 18.4 µM [falling, single point] | –
Cc1ncsc1CCOC(=O)c1ccc(N2CCOCC2)c([N+](=O)[O-])c1 | -35.4% | – | –

Structure (SMILES) | cell number change | AC50 [1] | AC50 [2]
CCn1c(C)c(CS(=O)(=O)c2ccccc2)[nH]c1=O | -0.875% | 0.461 µM [falling, full curve] | 0.731 µM [falling, full curve]
COc1ccccc1-n1c(CNC(=O)c2cccs2)n[nH]c1=S | -14.6% | 0.00206 µM [falling, full curve, poor fit] | –
COc1ccc(-c2noc(N3CCC(C(=O)NCCCN4CCCC(C)C4)CC3)n2)cc1 (configuration not stated) | -5.76% | 6.51 µM [rising, single point] | –
COc1ccc(-c2cc(-c3c(O)c(OC)c4occc4c3OC)[nH]n2)cc1OC | – | 0.164 µM [falling, full curve, poor fit] | –
COc1ccc(Cl)cc1NC(=O)C1CCCN(S(C)(=O)=O)C1 (configuration not stated) | -21.3% | – | –
COc1cc(OC)cc(-c2cc(N)n(S(=O)(=O)c3cccc4nsnc34)n2)c1 | – | – | 2.31 µM [rising, single point]
COc1ccc(CNC(=O)C2CCN(S(=O)(=O)c3cccc4cccnc34)CC2)cc1 | 41.8% | 3.66 µM [rising, full curve] | 4.11 µM [rising, full curve]
COc1cccc(NC(=O)CN(C)C(=O)CN2C(=O)NC(C)(c3ccc(C)cc3)C2=O)c1 (configuration not stated) | 7.9% | 0.517 µM [falling, single point] | –
COc1ccc(-c2nc3ccccc3n2Cc2ccc(C)cc2)cc1 | 43.2% | 18.4 µM [rising, partial curve] | 18.4 µM [rising, single point]
CC(=O)c1ccccc1NC(=O)C1CC(=O)N(c2ccc3c(c2)OCCO3)C1 (configuration not stated) | -3.61% | 29.1 µM [falling, partial curve, poor fit] | 0.731 µM [rising, single point]
CCOc1cc(C2c3c(oc4cc(C)c(Cl)cc4c3=O)C(=O)N2Cc2ccco2)ccc1O (configuration not stated) | -39.2% | 29.1 µM [falling, single point] | 29.1 µM [falling, single point]
CCOC(=O)c1c(C)c(C(=O)NCc2ccco2)c(C)n1Cc1ccccc1 | -12.4% | 20.6 µM [rising, single point] | 0.13 µM [falling, full curve, poor fit]
Cc1ccc(N(C(=O)c2csnn2)C(C(=O)NC2CCCCC2)c2ccccn2)cc1 (configuration not stated) | 16.2% | 6.51 µM [falling, single point] | –
Cc1cc(-n2nc(C)cc2C)nc(NS(=O)(=O)c2ccccc2Cl)n1 | – | 0.731 µM [rising, single point] | –
CCOc1ccccc1NC(=O)C(OC(=O)c1ccccc1NS(=O)(=O)c1cccs1)c1ccccc1 (configuration not stated) | 33.3% | 14.6 µM [falling, partial curve] | 2.06 µM [rising, full curve]
CCn1c(SCC(=O)Nc2nc(-c3ccccc3)cs2)nc2c1c(=O)n(C)c(=O)n2C | 102% | 14.6 µM [rising, partial curve] | 4.11 µM [rising, full curve]
COC(=O)C(CCCCNC(=O)c1ccc([N+](=O)[O-])cc1)NC(=O)c1ccc([N+](=O)[O-])cc1 (configuration not stated) | 6.05% | 0.058 µM [rising, full curve, poor fit] | –
Cc1ccc(Nc2c([N+](=O)[O-])ccc3nonc23)c(C)c1 | -63.3% | 8.2 µM [falling, partial curve] | 10.3 µM [falling, partial curve]
Cc1cc(O)c(C(=O)c2ccccc2C(=O)O)cc1C | 0.337% | 3.26 µM [rising, single point] | –
O=C(NCc1cccs1)c1cc(S(=O)(=O)N2CCOCC2)c(Cl)cc1Cl | 5.45% | 29.1 µM [rising, single point] | –

As a short view, 4 of the compounds above:
Structure (SMILES) | cell number change | AC50 [1] | AC50 [2]
COc1cccc(NC(=O)CN(C)C(=O)CN2C(=O)NC(C)(c3ccc(C)cc3)C2=O)c1 (configuration not stated) | 7.9% | 0.517 µM [falling, single point] | –
COc1ccc(-c2nc3ccccc3n2Cc2ccc(C)cc2)cc1 | 43.2% | 18.4 µM [rising, partial curve] | 18.4 µM [rising, single point]
CC(=O)c1ccccc1NC(=O)C1CC(=O)N(c2ccc3c(c2)OCCO3)C1 (configuration not stated) | -3.61% | 29.1 µM [falling, partial curve, poor fit] | 0.731 µM [rising, single point]
CCOc1cc(C2c3c(oc4cc(C)c(Cl)cc4c3=O)C(=O)N2Cc2ccco2)ccc1O (configuration not stated) | -39.2% | 29.1 µM [falling, single point] | 29.1 µM [falling, single point]

(further entries)

Structure (SMILES) | cell number change | AC50 [1] | AC50 [2]
COc1cc2c(cc1OC)C(COc1ccc(F)cc1)NCC2 (configuration not stated) | 1.19% | – | –
COc1ccc(/C=C2/NC(=O)N(CC(=O)Nc3cccc(C)c3)C2=O)cc1O | – | 0.411 µM [rising, full curve] | –
C=CCOc1c(Br)cc(CNc2ccc3[nH]c(=O)[nH]c3c2)cc1OCC | -28.7% | 0.326 µM [falling, full curve, poor fit] | –
CC(OC(=O)c1ccc2c(c1)OCO2)C(=O)NC1CCCCC1C (configuration not stated) | 4.38% | – | –
COc1ccc(N2C(=O)C(F)(F)C2c2cccc(F)c2)cc1 (configuration not stated) | -5.6% | 1.64 µM [falling, partial curve] | –
Cc1cccc(N(CC(=O)NCc2ccco2)C(=O)CCC(=O)Nc2ccccn2)c1 | -8.93% | – | 0.00411 µM [falling, full curve, poor fit]
Cc1nc2ccccc2nc1OCC(=O)Nc1ccccc1 | -6.69% | 0.731 µM [rising, partial curve, poor fit] | 0.731 µM [rising, partial curve, poor fit]
CCOc1cc(C(=O)NCCCn2ccnc2)cc(OCC)c1OCC | 24.7% | 13 µM [rising, partial curve] | –
CCOC(=O)N1CCN(C(=O)COC(=O)CNC(=O)c2ccc(OCC)c(OCC)c2)CC1 | -24.5% | – | –
CCOC(=O)c1ccc(NC(=O)CN(c2ccc(C)cc2)S(=O)(=O)c2c(C)n[nH]c2C)cc1 | -2.08% | – | 0.00517 µM [falling, full curve, poor fit]
Cc1nnc(NC(=O)C2CCN(c3cnccn3)CC2)s1 | 54.3% | 25.9 µM [rising, partial curve] | 29.1 µM [rising, single point]
O=C(/C=C/c1ccc(F)cc1)N1CCc2ccccc2C1 | – | 9.2 µM [rising, partial curve] | –
CCN(CC)CCCN1C(=O)C(=O)/C(=C(/O)c2ccc(C)cc2)C1c1ccccn1 (configuration not stated) | 4.43% | – | –
C=CCn1c(SCC(=O)NC2CCCC2)nc2scc(-c3ccco3)c2c1=O | 14.7% | 0.651 µM [rising, partial curve, poor fit] | –
CN1CCN(S(=O)(=O)c2ccc(Br)c3nsnc23)CC1 | -25.6% | – | –
CN1CCN(S(=O)(=O)c2ccc(N3CCN(S(=O)(=O)/C=C/c4ccccc4)CC3)nc2)CC1 | -37.6% | – | 29.1 µM [falling, single point]
Cc1ccc(CNC(=O)c2cc(S(=O)(=O)N3CCOCC3)cn2C)cc1 | 12.4% | 29.1 µM [rising, single point] | –
CCC(C(=O)O/N=C(\N)c1ccc(Cl)cc1)c1ccccc1 (configuration not stated) | -10.4% | 0.461 µM [falling, full curve, poor fit] | –
COc1ccc(-c2c/c(=N\c3nc(-c4ccccc4)c(C)s3)c3ccccc3o2)cc1O | -89.1% | – | 29.1 µM [falling, single point]
